This is one part of the list. Shown are side measurements of this screen, not its main read-out; they come without a call. The list favours compounds with an active or inconclusive main result. Potencies come from curve fits of mixed quality, noted in brackets.
Test: Cell signaling CRE-BLA (Fsk stim)
Settings: CHO CRE-bla reporter (cAMP response element driving beta-lactamase), forskolin EC10, beta-lactamase ratio; measured here: 460 nm blue channel
Outline: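 Beta-lactamase reporter under a cAMP responsive element in CHO cells; compounds tested in titration series against EC10 NKH 477, 3 h at 37 °C. Read-out: CCF4 FRET ratio 460nm/530nm (excitation 405nm) giving %Activity, fitted to AC50.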
In the case of `CCC(Sc1nc2c(cnn2-c2ccc(Cl)cc2)c(=O)[nH]1)C(=O)OC` (stereo not given), the AC50 is reported as 3.16 µM [rising, single point]. In the case of `COc1ccccc1-c1noc(-c2ccccc2C(=O)N2CCOCC2)n1`, the AC50 is reported as 0.316 µM [falling, partial curve]. In the case of `Cn1c(=O)c(-c2ccc(Cl)cc2)nc2cnc(Oc3ccccc3)nc21`, the AC50 is reported as 5.01 µM [rising, full curve]. With `OCCNCCCOc1cccc(Cl)c1Cl` the AC50 was 0.0398 µM [rising, full curve, poor fit]. With `Cc1cc(C(F)(F)F)nc(SCc2ccc(C(=O)O)o2)n1` the AC50 was 3.98 µM [rising, single point]. For `CCOC(=O)N1CCN(C(=O)c2ccc3nc4ccsc4c(=O)n3c2)CC1`, the AC50 was 7.94 µM [rising, partial curve]. In the case of `O=C(NCc1ccco1)c1cc(-c2ccccc2)on1`, the AC50 is reported as 5.01 µM [falling, full curve, poor fit]. With `CCOC(=O)c1ccccc1NC(=O)c1cccs1` the AC50 was 12.6 µM [rising, partial curve]. With `O=C1C2C3C=CC(C3)C2C(=O)N1c1cccc2cccnc12` (stereo not given) the AC50 was 0.631 µM [rising, full curve]. With `Cc1cc(C)n2nc(SCn3nnc4ccccc4c3=O)nc2n1` the AC50 was 12.6 µM [rising, partial curve]. With `CCNc1ncc2nc(-c3ccc(Cl)cc3)c(=O)n(Cc3cccc(OC)c3)c2n1` the AC50 was 0.126 µM [rising, full curve]. For `COc1ccc(-n2nc(C(=O)NCc3ccco3)c3c4ccccc4n(C)c3c2=O)cc1`, the AC50 was 1.26 µM [rising, full curve]. For `Cc1noc(C)c1-c1nc(NC2CC2)c2ccccc2n1`, the AC50 was 3.98 µM [rising, partial curve]. In the case of `c1ccc2[nH]c(NCCCN3CCOCC3)nc2c1`, the AC50 is reported as 5.01 µM [falling, single point]. In the case of `CCNc1ncc2nc(-c3cccc(C#N)c3)c(=O)n(C)c2n1`, the AC50 is reported as 2 µM [rising, full curve]. In the case of `Cc1ccc(-n2c(SCc3nnc4n3CCC4)nnc2-c2ccccc2)cc1`, the AC50 is reported as 25.1 µM [rising, single point]. With `Cc1cc(=O)c2cc(Cl)ccc2[nH]1` the AC50 was 0.158 µM [falling, full curve]. In the case of `CN(C)c1ccc(-c2nc(Nc3ccncc3)c3ccccc3n2)cc1`, the AC50 is reported as 3.98 µM [rising, partial curve]. With `COc1ccccc1C(O)P(=O)(OC(C)C)c1ccc(N(C)C)cc1` (stereo not given) the AC50 was 31.6 µM [falling, single point]. With `O=C(CN1CCCCC1)Nc1ccc(S(=O)(=O)NC2CCCCC2)cc1` the AC50 was 7.94 µM [rising, partial curve].

— PubChem BioAssay AID662 (National Center for Advancing Translational Sciences (NCATS), 2007)
